Results: article PMC5130011
These are yes or no findings as the source states them, for the method shown. In cells and extracts the contact can be indirect. Some results given as binding are weak or reduced against the parent protein; the word gives no strength.

T1: c-JUN (human (endogenous in TNBC cells)), P05412
T1 chain: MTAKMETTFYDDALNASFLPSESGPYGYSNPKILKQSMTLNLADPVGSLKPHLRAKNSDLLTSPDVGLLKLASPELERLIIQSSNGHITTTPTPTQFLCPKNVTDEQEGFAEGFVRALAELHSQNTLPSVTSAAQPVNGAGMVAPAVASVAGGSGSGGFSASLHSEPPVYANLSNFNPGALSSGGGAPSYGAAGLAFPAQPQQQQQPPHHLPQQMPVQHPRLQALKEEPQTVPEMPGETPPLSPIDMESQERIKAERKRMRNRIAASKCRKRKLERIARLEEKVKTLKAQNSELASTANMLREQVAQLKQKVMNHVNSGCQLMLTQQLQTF


Key:
[1] = target: T1, c-JUN (human (endogenous in TNBC …)); test: co-IP; cJUN immunoprecipitated with anti-cJUN antibody (clone C.238.2) on Dynabeads protein G from 200 μg nuclear extract of mock or TP4-treated TNBC cells; FRA1 or FOSB detected by Western blot; nonspecific IgG as negative control; conditions: remark: other sources report otherwise
[2] = target: c-JUN (human (endogenous in TNBC cells)) (UniProt P05412); test: as above

Row | binding [1] | binding [2] | Binder
1 | binds | – | FOSB, P53539 1-338 (protein) MFQAFPGDYDSGSRCSSSPSAESQYLSSVDSFGSPPTAAASQECAGLGEMPGSFVPTVTAITTSQDLQWLVQPTLISSMAQSQGQPLASQPPVVDPYDMPGTSYSTPGMSGYSSGGASGSGGPSTSGTTSGPGPARPARARPRRPREETLTPEEEEKRRVRRERNKLAAAKCRNRRRELTDRLQAETDQLEEEKAELESEIAELQKEKERLEFVLVAHKPGCKIPYEEGPGPGPLAEVRDLPGSAPAKEDGFSWLLPPPPPPPLPFQTSQDAPPNLTASLFTHSEVQVLGDPFPVVNPSYTSSFVLTCPEVSAFAGAQRTSGSDQPSDPLNSPSLLAL
2 | – | binds | FRA1 (protein, UniProt P15407 1-271) MFRDFGEPGPSSGNGGGYGGPAQPPAAAQAAQQKFHLVPSINTMSGSQELQWMVQPHFLGPSSYPRPLTYPQYSPPQPRPGVIRALGPPPGVRRRPCEQISPEEEERRRVRRERNKLAAAKCRNRRKELTDFLQAETDKLEDEKSGLQREIEELQKQKERLELVLEAHRPICKIPEGAKEGDTGSTSGTSSPPAPCRPVPCISLSPGPVLEPEALHTPTLMTTPSLTPFTPSLVFTYPSTPEPCASAHRKSSSSSGDPSSDPLGSPTLLAL
